Measurements as given in paper PMC7150977, “Regional Intestinal Drug Permeability and Effects of Permeation Enhancers in Rat” (Pharmaceutics, 2020).
Like-named read-outs stand apart in the source and are kept apart here.

Columns and labels:
[1] = design: method as in PMID 9836611; conditions: cited from earlier work
colon = conditions: male, Han Wistar, rat, in vivo, 60 min, 100 µM
jejunum = experiment: Rat single-pass intestinal perfusion (SPIP), jejunal lumen-to-blood Peff from plasma appearance; assay type: in vivo; conditions: 100 µM, mean ±SD, n = 6

CC(C)NCC(O)COc1ccc(CC(N)=O)cc1 (stereo not drawn) [Atenolol, atenolol]
HBA (hydrogen bond acceptor) [1]: 4/4 | HBD (hydrogen bond donor) [1]: 4/4 | Plasma Appearance Peff (colon; pH 6.5): 0.015 ± 0.007 ×10^–4 cm/s | Plasma Appearance Peff (colon; pH 7.4): 0.011 ± 0.005 ×10^–4 cm/s | Plasma Appearance Peff (jejunum; Jejunum pH 6.5, control solution): 0.022 ± 0.01 ×10^–4 cm/s | Plasma Appearance Peff (jejunum; Jejunum pH 7.4, control solution): 0.016 ± 0.005 ×10^–4 cm/s
